This passage reports binding results from paper PMC12407772.

Amino acid sequences for entries named in this document (tags omitted).
UniProt Q7Z6Z7: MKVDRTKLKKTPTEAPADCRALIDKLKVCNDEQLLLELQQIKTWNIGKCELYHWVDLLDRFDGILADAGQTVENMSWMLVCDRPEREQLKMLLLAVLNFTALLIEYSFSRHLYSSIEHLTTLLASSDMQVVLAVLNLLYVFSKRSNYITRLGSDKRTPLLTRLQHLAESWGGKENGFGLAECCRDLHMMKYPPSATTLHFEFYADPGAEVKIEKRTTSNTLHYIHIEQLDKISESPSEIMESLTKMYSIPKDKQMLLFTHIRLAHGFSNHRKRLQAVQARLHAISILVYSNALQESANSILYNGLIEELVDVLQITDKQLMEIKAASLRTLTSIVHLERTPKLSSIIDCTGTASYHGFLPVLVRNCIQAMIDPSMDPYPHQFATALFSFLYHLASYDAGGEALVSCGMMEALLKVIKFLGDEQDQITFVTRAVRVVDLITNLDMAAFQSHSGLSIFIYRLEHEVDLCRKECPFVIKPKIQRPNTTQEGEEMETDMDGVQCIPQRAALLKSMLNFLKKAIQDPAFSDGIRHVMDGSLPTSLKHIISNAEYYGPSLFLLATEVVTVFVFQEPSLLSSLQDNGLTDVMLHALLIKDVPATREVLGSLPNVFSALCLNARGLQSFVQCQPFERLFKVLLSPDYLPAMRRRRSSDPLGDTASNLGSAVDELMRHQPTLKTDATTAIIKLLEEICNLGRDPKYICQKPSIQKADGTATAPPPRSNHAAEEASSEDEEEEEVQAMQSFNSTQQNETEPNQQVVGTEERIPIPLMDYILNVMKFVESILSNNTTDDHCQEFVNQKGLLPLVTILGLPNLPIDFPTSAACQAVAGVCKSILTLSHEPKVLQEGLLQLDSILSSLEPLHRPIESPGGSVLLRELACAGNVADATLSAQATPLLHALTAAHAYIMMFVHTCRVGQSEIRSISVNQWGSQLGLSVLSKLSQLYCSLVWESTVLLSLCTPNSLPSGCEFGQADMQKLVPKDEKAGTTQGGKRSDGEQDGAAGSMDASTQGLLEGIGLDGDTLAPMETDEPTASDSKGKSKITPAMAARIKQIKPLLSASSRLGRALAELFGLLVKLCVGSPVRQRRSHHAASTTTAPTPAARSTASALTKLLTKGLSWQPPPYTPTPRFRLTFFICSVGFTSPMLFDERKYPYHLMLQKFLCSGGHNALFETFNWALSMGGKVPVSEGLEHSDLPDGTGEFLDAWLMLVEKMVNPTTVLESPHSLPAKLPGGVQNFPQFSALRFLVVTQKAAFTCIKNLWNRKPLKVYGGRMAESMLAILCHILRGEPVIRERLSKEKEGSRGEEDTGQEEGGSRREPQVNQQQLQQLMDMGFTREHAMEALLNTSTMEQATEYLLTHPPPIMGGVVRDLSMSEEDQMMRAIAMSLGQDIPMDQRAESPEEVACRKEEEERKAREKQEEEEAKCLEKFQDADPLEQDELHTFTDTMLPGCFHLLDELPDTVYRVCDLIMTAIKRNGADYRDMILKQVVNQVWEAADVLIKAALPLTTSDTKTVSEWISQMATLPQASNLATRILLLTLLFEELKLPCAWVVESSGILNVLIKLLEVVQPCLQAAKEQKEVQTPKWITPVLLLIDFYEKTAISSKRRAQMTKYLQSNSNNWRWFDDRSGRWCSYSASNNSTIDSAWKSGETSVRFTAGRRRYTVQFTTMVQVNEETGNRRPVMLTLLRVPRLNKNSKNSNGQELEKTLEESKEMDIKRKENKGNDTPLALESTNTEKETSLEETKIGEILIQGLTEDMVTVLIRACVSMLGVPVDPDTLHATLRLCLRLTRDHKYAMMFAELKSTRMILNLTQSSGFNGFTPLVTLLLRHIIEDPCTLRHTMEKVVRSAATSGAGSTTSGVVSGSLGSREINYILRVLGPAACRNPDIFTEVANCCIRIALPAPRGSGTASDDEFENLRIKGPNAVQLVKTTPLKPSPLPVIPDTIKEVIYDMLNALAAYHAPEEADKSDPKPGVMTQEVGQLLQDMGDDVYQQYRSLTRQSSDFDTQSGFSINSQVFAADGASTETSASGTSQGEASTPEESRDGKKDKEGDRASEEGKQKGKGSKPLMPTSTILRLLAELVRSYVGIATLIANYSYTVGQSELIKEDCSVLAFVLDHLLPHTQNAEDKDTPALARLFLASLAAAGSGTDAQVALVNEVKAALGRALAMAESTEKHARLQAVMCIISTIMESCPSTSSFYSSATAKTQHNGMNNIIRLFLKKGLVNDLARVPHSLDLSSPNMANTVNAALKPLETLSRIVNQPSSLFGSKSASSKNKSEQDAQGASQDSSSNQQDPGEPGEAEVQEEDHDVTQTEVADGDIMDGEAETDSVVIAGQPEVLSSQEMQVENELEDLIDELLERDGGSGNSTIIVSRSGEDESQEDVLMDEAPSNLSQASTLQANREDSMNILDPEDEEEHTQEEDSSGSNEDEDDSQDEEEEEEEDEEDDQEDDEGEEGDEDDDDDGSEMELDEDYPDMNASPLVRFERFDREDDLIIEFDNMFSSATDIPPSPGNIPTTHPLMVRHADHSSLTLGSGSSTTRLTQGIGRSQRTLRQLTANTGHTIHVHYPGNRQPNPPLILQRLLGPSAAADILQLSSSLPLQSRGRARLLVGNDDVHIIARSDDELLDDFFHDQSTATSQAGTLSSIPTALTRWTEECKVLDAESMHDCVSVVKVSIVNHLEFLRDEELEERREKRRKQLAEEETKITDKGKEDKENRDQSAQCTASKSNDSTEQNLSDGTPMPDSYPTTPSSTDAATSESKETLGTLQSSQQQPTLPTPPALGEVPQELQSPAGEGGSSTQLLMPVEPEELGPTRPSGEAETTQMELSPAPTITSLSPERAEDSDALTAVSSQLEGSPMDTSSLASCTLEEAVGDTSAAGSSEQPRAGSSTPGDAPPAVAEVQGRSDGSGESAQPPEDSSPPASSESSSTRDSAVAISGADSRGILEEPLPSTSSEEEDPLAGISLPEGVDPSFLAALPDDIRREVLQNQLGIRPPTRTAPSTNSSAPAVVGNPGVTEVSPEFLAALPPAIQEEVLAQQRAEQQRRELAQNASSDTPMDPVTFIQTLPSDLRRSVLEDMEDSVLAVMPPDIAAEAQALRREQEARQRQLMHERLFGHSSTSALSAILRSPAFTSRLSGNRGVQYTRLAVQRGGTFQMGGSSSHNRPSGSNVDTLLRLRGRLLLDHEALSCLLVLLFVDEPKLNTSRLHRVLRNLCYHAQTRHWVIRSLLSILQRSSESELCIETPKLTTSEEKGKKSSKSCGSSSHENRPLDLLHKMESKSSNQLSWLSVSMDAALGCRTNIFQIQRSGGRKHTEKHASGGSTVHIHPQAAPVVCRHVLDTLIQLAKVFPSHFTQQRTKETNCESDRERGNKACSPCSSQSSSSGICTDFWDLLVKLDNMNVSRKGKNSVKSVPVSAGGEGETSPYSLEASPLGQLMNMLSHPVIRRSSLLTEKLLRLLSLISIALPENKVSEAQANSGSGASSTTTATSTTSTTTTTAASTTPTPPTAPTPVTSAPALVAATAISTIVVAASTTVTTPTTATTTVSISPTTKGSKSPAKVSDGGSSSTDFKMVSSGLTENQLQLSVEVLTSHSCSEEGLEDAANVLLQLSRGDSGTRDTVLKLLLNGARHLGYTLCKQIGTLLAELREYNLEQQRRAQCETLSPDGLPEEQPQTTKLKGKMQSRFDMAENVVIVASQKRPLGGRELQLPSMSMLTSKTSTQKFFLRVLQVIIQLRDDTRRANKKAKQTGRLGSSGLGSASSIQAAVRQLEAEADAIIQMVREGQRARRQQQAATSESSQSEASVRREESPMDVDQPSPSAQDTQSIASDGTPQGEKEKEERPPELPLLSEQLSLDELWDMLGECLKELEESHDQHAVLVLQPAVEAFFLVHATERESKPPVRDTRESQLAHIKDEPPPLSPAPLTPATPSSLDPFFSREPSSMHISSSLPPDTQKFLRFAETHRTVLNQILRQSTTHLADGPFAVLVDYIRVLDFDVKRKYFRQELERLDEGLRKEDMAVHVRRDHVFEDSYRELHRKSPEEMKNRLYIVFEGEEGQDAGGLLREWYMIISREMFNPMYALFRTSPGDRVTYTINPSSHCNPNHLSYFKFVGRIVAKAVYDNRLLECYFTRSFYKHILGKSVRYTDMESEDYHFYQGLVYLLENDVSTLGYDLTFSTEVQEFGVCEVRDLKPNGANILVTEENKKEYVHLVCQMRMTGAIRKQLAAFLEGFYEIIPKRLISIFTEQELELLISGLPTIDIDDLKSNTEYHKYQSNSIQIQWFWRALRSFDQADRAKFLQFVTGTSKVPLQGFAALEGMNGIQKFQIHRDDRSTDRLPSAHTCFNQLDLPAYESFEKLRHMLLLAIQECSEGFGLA
UniProt Q92973: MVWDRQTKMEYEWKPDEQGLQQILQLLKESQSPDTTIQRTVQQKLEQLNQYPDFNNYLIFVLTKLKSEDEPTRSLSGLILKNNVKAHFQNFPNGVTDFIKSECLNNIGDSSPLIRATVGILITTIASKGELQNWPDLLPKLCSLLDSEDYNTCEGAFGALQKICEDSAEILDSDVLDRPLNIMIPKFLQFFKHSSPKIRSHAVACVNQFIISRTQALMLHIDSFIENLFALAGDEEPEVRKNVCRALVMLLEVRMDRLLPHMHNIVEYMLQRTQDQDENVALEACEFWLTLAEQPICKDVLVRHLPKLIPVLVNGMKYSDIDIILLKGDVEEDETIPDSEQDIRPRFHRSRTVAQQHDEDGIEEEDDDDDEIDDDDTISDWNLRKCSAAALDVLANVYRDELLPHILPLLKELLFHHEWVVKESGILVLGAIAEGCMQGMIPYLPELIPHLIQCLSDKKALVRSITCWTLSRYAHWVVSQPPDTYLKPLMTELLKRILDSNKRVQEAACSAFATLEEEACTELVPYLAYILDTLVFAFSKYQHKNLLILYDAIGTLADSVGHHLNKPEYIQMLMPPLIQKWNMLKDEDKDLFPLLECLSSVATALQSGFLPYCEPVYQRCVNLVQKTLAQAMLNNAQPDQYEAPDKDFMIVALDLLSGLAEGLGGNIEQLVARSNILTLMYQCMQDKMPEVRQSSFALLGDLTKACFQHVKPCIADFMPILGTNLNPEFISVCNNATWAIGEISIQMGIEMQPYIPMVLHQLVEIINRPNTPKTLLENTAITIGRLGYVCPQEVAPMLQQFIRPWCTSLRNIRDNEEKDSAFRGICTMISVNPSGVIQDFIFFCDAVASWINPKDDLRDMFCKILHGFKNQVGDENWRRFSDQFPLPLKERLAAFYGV

This assay deals with MCL1^TurboID (full-length MCL1 fused to two NLS and a C-terminal TurboID) (UniProt Q07820). Description: proximity labelling; TurboID proximity biotinylation in live transfected HCT116 and HeLa cells: MCL1^TurboID (two NLS) compared with an identical GFP^TurboID construct; 67 uM biotin, 15-20 min, 37°C; RIPA lysis, streptavidin magnetic beads, on-bead trypsin digest, LC-MS/MS; SAINT, hits at SP > 0.8; technical triplicate.

No constants are given. Whether binding was seen depends on the method and setting. In cells and extracts the contact can be indirect. A yes stands for co-enrichment or nearness to the bait. Other partners may have been found.

As to “E3 ligase Mule aka HUWE1 (from UniProt Q7Z6Z7 1-4374) (enzyme)”, the binding entry was “binds”.

For “sequestosome-1 (SQSTM1) (from UniProt Q13501 1-440)”, the binding entry is “binds”. Take “transportin-1 (TNPO1) (from UniProt Q92973 1-898)”: the binding result is recorded as “binds”.
